Source: publication PMC11698904
Results are given in words; binding and its absence hold for the method and conditions named. Binding seen in cells or lysates may run through a third protein. Some binding calls cover weakened binding; strength is not graded here.

Target: T1, CD95 (human (endogenous in SUIT-020)), P25445
T1 chain: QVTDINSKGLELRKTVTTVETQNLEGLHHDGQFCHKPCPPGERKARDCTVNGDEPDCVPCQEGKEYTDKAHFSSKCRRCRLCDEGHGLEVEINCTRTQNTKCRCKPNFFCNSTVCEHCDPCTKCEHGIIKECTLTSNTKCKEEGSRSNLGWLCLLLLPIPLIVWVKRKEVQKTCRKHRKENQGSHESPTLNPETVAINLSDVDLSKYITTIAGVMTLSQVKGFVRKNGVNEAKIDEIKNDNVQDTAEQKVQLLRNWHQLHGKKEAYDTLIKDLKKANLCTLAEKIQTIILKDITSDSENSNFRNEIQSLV
Experiment: co-IP; DISC-IP: 2 µg anti-APO-1 antibodies and Protein-A Sepharose beads added to total cellular lysates, overnight at 4 °C, four washes with PBS, Western Blot; SUIT-020 cells treated with DL, gemcitabine, FLIPinB and/or S63845
Conditions: remark: other sources report otherwise

B1: caspase-8 (procaspase-8 and its cleavage products p43/p41, p30 and p18), Q14790 1-479 (enzyme)
chain: MDFSRNLYDIGEQLDSEDLASLKFLSLDYIPQRKQEPIKDALMLFQRLQEKRMLEESNLSFLKELLFRINRLDLLITYLNTRKEEMERELQTPGRAQISAYRVMLYQISEEVSRSELRSFKFLLQEEISKCKLDDDMNLLDIFIEMEKRVILGEGKLDILKRVCAQINKSLLKIINDYEEFSKERSSSLEGSPDEFSNGEELCGVMTISDSPREQDSESQTLDKVYQMKSKPRGYCLIINNHNFAKAREKVPKLHSIRDRNGTHLDAGALTTTFEELHFEIKPHDDCTVEQIYEILKIYQLMDHSNMDCFICCILSHGDKGIIYGTDGQEAPIYELTSQFTGLKCPSLAGKPKVFFIQACQGDNYQKGIPVETDSEEQPYLEMDLSSPQTRYIPDEADFLLGMATVNNCVSYRNPAEGTWYIQSLCQSLRERCPRGDDILTILTEVNYEVSNKDDKKNMGKQMPQPTFTLRKKLVFPSD
  binding: binds
